Results published in patent US8487074B2, “Modulation of lipid rafts” (Lantmannen AS-Faktor AB, priority 2006, dated 2013).
Part of at least one peptide drawing is inferred or uncertain, most often the ends. No end group written: not given here.

System: pulmonary hypertension
Test: Crotaline (monocrotaline) induced pulmonary hypertension in rats
Type: in vivo, Sprague-Dawley rats
Settings: crotaline treated rats
Method: Adolescent and adult rats, with a body weight of 150-300 g and of either sex, were treated experimentally to induce pulmonary hypertension and reactive alterations in the lungs. Pulmonary hypertension (PH) is defined as having a pressure in excess of the normal pulmonary artery pressure, […], usually in the range of 30-40 mm Hg. It is a progressive disease with high morbidity and mortality in humans as well as in animals. Experimental models enable investigation of the initiating mechanisms. A single treatment of rats with monocrotaline is an established approach for the induction of PH (Cf. Mathew et al., 2004). This plant alkaloid is activated in the liver to pyrrolic metabolites, with a half-life of just a few seconds and therefore mainly affects the pulmonary arterial endothelium, causing endothelial cell damage and pulmonary vascular leak. This is followed within the next few days by a prominent stimulation of pulmonary arterial endothelial cell DNA synthesis and hypertrophy. These endothelial cells are thought to secrete growth and motility promoting factors, which contribute to the migration and reactive changes of adjacent smooth muscle cells. Within two weeks, the right heart ventricle turns hypertrophic due to the elevated load resulting from the crotaline-induced changes in the pulmonary vascular system. […]
The rats were anaesthetized 18 days later, and their body weights determined. […] The pressure in the right heart ventricle was assessed with the aid of a fiber optic miniature transducer system (Samba System 3200 & Samba Preclin 420 sensor; Samba Sensors AB, V. Frolunda, Sweden), inserted through the right jugular vein. […] In contrast, rats treated with crotaline (single ip injection; 60 mg/kg body weight; crotaline dissolved in PBS) and the vehicle delivered by a Alzet pump had for 18 days an pulmonary artery pressure in excess of 30 mm Hg and a hypertrophy of the right ventricle, as assessed by comparing its wet weight to that of the left ventricle and with the weight of corresponding structures of non-treated, normal rats. […]

Question: How did the “induced damage to lipid rafts and caveolae in endothelium and vascular smooth muscle cells and subsequent reactive changes” value turn out when “VCHSKTRSNPENNVGL [AF-16, VCHSKTRSNPENNVGL]” was run?
Answer: The value was “reduced”.

Question: And the “right ventricular blood pressure and lung arterial blood pressure” value (18 days)?
Answer: Its value is “close to normal”.

Question: And the “hypertrophy of the right ventricle (wet weight vs left ventricle)” value (compared to normal non-treated rats)?
Answer: Its value is “no significant hypertrophy of the right ventricle”.
